The supplement of paper PMC10849652
This is one part of the list.

By UniProt entry, the sequences of proteins in these tests, tags left out. Where a name states a change or a piece, a line headed by the entry shows the natural chain unless it says otherwise.
UniProt Q3SXY8: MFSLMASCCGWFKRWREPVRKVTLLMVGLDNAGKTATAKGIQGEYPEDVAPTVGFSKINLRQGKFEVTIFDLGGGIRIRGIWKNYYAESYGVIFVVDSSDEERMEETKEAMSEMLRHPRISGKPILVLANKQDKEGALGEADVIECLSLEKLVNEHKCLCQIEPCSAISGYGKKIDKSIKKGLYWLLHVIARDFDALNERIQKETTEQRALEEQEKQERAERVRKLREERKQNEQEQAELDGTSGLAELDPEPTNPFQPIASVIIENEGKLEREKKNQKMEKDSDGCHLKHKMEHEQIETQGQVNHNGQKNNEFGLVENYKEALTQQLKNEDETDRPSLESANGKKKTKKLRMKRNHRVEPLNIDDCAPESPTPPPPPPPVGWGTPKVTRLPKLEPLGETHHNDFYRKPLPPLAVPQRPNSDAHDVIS
UniProt O75915: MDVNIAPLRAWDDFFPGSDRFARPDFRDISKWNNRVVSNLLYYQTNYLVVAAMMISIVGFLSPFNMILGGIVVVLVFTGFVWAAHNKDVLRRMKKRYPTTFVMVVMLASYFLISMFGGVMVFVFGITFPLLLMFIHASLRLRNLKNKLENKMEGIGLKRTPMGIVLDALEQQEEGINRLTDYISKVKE
UniProt Q9H993: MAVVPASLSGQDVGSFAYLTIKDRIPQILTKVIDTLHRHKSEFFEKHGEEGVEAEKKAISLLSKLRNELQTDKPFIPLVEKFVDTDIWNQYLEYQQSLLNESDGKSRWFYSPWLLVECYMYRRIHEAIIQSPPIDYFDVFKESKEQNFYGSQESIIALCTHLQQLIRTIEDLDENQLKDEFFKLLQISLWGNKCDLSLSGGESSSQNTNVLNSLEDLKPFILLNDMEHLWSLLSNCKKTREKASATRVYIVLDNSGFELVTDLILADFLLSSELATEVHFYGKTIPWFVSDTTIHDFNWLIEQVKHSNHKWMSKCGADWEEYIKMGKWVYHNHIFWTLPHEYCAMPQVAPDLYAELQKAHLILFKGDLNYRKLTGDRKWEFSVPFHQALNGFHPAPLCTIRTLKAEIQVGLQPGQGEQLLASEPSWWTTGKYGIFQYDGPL
UniProt P36542: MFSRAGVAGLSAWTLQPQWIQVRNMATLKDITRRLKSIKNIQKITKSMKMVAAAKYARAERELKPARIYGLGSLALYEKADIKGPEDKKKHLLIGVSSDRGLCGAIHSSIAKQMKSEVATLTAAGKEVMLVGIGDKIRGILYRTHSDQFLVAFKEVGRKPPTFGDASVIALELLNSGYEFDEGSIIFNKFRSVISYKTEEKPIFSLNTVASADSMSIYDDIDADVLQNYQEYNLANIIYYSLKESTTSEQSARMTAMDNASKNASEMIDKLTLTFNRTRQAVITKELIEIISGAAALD
UniProt P36404: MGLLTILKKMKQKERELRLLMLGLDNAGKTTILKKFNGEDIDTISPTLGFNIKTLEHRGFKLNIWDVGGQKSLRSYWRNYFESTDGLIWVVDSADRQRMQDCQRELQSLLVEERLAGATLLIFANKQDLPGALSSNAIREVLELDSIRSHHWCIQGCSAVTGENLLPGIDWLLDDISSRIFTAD
UniProt Q9Y294, whole entry, looked up: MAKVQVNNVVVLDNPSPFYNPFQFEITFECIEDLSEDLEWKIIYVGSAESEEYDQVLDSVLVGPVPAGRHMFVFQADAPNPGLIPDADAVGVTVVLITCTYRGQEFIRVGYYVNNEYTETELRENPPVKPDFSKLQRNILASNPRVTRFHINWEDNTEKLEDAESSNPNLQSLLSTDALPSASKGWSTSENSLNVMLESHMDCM
UniProt P18859: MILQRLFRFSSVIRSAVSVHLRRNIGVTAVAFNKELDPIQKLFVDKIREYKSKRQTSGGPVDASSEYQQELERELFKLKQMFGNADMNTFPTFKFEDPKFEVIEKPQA
UniProt Q8IXJ9: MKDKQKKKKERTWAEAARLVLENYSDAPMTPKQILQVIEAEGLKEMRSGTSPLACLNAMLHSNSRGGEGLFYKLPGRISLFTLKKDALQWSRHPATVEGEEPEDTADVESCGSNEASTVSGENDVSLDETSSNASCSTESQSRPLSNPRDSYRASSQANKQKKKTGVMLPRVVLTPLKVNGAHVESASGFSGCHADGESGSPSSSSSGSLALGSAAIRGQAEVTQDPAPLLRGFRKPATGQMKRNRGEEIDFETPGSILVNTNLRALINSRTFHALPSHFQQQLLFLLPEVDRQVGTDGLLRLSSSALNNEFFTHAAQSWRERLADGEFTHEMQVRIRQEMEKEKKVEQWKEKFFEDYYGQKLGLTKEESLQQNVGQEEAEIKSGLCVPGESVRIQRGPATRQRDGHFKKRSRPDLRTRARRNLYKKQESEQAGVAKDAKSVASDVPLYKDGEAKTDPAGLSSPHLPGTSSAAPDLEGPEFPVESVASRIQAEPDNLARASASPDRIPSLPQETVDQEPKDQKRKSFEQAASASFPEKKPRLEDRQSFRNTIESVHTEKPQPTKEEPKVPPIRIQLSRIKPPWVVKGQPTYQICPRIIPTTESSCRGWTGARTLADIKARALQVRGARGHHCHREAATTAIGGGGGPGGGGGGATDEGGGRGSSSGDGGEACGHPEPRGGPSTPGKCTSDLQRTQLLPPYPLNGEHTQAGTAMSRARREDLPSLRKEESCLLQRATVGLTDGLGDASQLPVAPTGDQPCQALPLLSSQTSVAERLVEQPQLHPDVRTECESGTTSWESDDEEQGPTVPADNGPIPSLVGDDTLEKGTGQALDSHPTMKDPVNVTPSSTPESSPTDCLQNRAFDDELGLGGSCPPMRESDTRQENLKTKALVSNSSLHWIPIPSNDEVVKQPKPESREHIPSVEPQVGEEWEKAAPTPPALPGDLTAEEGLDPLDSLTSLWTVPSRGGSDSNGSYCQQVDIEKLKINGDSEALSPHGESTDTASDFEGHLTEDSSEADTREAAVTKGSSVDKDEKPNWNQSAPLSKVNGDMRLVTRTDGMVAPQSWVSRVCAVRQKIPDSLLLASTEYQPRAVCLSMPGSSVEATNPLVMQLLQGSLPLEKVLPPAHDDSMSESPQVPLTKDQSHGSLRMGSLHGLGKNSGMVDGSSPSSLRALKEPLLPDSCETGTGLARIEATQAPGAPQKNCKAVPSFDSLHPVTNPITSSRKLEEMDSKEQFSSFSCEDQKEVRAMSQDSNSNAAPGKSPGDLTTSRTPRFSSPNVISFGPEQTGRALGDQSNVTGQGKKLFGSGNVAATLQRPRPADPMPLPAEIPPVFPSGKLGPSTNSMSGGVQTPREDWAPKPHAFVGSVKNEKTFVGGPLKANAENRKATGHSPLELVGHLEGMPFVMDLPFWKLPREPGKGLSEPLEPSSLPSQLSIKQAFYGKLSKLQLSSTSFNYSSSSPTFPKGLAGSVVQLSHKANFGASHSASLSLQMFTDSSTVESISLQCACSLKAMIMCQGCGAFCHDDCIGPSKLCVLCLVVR

The targets below were run with c1cn2cc(-c3ccc4cn[nH]c4c3)nc(Nc3ccc(N4CCOCC4)cc3)c2n1 [entospletinib] (assay: log2 fold change, soluble protein after heating vs DMSO (PISA); higher = thermal stabilisation; K562 cells, 10 uM, 30 min; active = over 0.2 and 3.5 SD of the protein, either way, in both replicates (recomputed)).
Summary of the method: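 Soluble protein was quantified by TMTpro 16plex LC-MS/MS after channel sums were equalised. It was obtained as the supernatant after 21,000xg for 90 min from pooled aliquots of K562 cells (2×10^6 cells/mL, 10 μM compound, 30 min) heated for 3 min across 48°C-58°C and extracted in PBS with 0.5% NP-40 at 4°C. Thermal stability values are relative to control samples and come from duplicates. They are given as log2 fold changes.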

log2 fold change, inactive:
ARL13B (UniProt Q3SXY8) 0.009
ARL6IP5 (UniProt O75915) -0.029
ARMT1 (UniProt Q9H993) 0.056
ATP5F1C (UniProt P36542) 0.008
ATP5F1B (UniProt H0YI37) 0.107
ARL2 (UniProt P36404) -0.053
ASF1A (UniProt Q9Y294) 0.015
ATP5PF isoform 2 (UniProt P18859) 0.104
ASXL1 (UniProt Q8IXJ9) 0.041

For reference, part of the list above:
log2 fold change, inactive:
ARMT1 (UniProt Q9H993) 0.056
ATP5F1C (UniProt P36542) 0.008
